Experimental data taken from patent US20060216761A1, “Isolation material for hormone disrupting substance, method of concentrating and method of clean-up” (priority 2002, published 2006).

Columns and labels:
[1] = tested on: anti-resin component antibody; test: Bisphenol A (BPA) addition/recovery experiment using non-woven fabric affinity column; type: binding, rabbit; conditions: BPA added 10 ng (10 ng/l)
anti-estrogen antibody = test: Estrogen addition/recovery experiment using non-woven fabric estrogen affinity column; type: binding, rabbit; conditions: for E2-T measured value: E2 1 ng/L, 300 ml to 2 ml; for E2 measured value: E2 3 ng/L, 100 ml to 2 ml

CC(C)(c1ccc(O)cc1)c1ccc(O)cc1 [Bisphenol A (BPA), Bisphenol A]
concentration of BPA recovered ([1]; 8 ml eluate): 1.06 ng/mL | Amount of BPA recovered ([1]; non-woven fabric diameter 1.2 cm, 30 layers, antibody bound 3.4 mg): 8.5 ng

C[C@]12CC[C@@H]3c4ccc(O)cc4CC[C@H]3[C@@H]1CC[C@@H]2O [17β-Estradiol (E2), 17β-Estradiol]
E2-T measured value (anti-estrogen antibody; diameter 0.8 cm, 20 layers): <0.05 µg/L | E2-T measured value (anti-estrogen antibody; diameter 0.8 cm, 40 layers): 0.08 µg/L | E2-T measured value (anti-estrogen antibody; diameter 0.8 cm, 60 layers): 0.09 µg/L | E2-T measured value (anti-estrogen antibody; diameter 0.8 cm, 80 layers): 0.10 µg/L | E2-T measured value (anti-estrogen antibody; diameter 1.2 cm, 10 layers): 0.05 µg/L | E2-T measured value (anti-estrogen antibody; diameter 1.2 cm, 20 layers): 0.08 µg/L | E2-T measured value (anti-estrogen antibody; diameter 1.2 cm, 30 layers): 0.10 µg/L | E2-T measured value (anti-estrogen antibody; diameter 1.2 cm, 40 layers): 0.13 µg/L | E2-T measured value (anti-estrogen antibody; diameter 2.6 cm, 3 layers): 0.06 µg/L | E2-T measured value (anti-estrogen antibody; diameter 2.6 cm, 6 layers): 0.09 µg/L | E2-T measured value (anti-estrogen antibody; diameter 2.6 cm, 9 layers): 0.12 µg/L | E2-T measured value (anti-estrogen antibody; diameter 2.6 cm, 12 layers): 0.14 µg/L | E2 measured value (anti-estrogen antibody; 30 layers, density 30 g/m^2, graft ratio 145%): 0.073 µg/L | E2 measured value (anti-estrogen antibody; 30 layers, density 30 g/m^2, graft ratio 207%): 0.153 µg/L | E2 measured value (anti-estrogen antibody; 30 layers, density 65 g/m^2, graft ratio 47%): 0.089 µg/L | E2 measured value (anti-estrogen antibody; 30 layers, density 65 g/m^2, graft ratio 97%): 0.091 µg/L | E2 measured value (anti-estrogen antibody; 30 layers, density 65 g/m^2, graft ratio 154%): 0.095 µg/L | E2 measured value (anti-estrogen antibody; 30 layers, density 100 g/m^2, graft ratio 58%): 0.117 µg/L | E2 measured value (anti-estrogen antibody; 30 layers, density 100 g/m^2, graft ratio 93%): 0.122 µg/L | E2 measured value (anti-estrogen antibody; 30 layers, density 100 g/m^2, graft ratio 148%): 0.118 µg/L
